Results are given in words; binding and its absence hold for the method and conditions named. Binding seen in cells or lysates may run through a third protein. Some entries that bind do so weakly or less than the wild type.
Legend:
[1] = biological target: flag-tagged wild-type Dicer (UniProt Q9UPY3); experiment: co-IP; 293T cells co-transfected with flag-tagged Dicer (wt or N-terminal deletion mutants) and Tat; immunoprecipitation with anti-flag beads; blots with anti-flag, anti-Tat, anti-Ago2
[2] = biological target: GST-Tat 1–45 (HIV-1) (UniProt P04608); experiment: pull-down; purified GST, GST-Tat or GST-Tat deletion mutants used to pull down from lysates of myc-Dicer transfected 293T cells; Dicer detected with anti-myc; only the target purified

Protein sequences, listed by entry. Tags and fused reporters are not part of them. Residues count along the entry.
UniProt Q9UPY3: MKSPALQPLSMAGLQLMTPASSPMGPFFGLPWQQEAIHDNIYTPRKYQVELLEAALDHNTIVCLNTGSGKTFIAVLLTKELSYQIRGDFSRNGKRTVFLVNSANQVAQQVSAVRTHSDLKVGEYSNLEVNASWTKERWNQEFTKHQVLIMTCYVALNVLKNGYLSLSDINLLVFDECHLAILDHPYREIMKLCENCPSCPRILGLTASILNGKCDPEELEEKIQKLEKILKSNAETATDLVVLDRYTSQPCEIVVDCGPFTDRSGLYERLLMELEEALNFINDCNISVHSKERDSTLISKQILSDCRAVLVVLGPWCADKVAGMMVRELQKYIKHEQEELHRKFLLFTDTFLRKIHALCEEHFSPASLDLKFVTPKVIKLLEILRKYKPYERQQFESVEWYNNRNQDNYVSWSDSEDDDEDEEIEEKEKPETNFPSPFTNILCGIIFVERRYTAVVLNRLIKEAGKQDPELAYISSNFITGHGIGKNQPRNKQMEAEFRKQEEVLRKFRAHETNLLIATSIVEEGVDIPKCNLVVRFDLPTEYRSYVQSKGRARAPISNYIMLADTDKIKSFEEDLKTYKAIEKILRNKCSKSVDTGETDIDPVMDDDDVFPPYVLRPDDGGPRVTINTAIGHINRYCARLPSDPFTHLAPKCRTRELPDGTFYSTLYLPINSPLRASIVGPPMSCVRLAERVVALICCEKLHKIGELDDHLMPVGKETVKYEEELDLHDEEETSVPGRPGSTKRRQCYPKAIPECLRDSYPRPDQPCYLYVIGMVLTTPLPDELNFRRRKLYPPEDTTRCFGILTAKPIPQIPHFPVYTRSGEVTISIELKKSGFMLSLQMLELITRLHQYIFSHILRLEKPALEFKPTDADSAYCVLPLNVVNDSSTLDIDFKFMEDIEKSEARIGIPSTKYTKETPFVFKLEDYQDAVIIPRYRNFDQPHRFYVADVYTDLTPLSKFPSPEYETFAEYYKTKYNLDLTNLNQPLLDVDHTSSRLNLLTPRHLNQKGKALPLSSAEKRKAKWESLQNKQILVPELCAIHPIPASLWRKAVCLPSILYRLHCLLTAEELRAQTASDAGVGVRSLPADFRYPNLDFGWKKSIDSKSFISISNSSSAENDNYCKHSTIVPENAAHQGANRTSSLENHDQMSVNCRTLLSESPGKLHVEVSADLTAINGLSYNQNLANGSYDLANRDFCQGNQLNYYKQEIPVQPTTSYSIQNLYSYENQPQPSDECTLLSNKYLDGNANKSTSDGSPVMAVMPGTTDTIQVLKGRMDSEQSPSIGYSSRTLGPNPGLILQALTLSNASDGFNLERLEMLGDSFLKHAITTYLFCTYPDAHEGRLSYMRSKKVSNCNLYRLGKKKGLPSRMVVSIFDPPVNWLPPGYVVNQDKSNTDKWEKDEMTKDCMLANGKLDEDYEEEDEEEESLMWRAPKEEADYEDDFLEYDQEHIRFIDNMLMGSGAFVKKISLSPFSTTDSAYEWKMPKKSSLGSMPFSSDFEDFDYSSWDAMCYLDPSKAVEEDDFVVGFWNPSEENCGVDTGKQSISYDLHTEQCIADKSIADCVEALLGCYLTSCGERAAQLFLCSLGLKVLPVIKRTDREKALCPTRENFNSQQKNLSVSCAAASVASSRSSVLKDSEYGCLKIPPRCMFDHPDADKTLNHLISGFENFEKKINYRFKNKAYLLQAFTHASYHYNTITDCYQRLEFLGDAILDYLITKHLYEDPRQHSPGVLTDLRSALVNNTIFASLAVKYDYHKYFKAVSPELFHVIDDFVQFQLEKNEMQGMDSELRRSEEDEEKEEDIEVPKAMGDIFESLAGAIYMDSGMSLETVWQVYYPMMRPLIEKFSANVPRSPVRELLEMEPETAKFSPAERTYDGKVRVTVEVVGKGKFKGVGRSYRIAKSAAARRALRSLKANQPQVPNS
UniProt P04608, residues 1-45: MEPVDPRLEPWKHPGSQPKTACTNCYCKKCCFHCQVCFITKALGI
UniProt Q9UKV8: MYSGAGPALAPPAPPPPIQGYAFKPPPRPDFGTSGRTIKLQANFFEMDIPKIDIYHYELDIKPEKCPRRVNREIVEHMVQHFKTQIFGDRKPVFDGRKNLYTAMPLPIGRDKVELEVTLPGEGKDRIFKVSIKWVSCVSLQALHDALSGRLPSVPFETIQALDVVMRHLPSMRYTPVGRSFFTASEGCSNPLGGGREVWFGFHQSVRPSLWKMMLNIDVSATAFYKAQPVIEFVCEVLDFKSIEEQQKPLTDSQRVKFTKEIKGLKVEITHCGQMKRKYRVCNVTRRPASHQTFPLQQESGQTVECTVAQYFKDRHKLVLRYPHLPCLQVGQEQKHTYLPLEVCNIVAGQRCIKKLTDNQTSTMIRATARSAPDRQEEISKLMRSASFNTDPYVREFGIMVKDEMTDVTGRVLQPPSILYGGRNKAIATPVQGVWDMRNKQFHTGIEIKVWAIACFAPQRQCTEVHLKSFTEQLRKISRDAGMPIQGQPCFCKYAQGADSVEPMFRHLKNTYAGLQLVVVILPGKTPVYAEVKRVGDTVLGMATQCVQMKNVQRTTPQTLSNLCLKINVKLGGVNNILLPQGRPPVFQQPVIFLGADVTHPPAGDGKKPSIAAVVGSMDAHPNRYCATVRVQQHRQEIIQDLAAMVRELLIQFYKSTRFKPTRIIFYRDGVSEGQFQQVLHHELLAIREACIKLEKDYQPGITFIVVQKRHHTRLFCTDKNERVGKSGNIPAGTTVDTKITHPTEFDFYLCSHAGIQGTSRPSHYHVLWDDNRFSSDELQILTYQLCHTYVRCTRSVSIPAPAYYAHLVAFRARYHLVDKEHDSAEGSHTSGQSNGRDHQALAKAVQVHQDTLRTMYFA

binding [1]	Substance	binding [2]
binds	argonaute 2 (Ago-2) (from UniProt Q9UKV8 1-859)	–
–	myc-tagged Dicer (from UniProt Q9UPY3 1-1922) (enzyme)	no binding

From publication PMC1764028
